# Data taken from article PMC5469853.
# By UniProt entry, the sequences of proteins in these tests, tags left out. Where a name states a change or a piece, a line headed by the entry shows the natural chain unless it says otherwise. Residues count along the entry.
# UniProt P02769, residues 25-607: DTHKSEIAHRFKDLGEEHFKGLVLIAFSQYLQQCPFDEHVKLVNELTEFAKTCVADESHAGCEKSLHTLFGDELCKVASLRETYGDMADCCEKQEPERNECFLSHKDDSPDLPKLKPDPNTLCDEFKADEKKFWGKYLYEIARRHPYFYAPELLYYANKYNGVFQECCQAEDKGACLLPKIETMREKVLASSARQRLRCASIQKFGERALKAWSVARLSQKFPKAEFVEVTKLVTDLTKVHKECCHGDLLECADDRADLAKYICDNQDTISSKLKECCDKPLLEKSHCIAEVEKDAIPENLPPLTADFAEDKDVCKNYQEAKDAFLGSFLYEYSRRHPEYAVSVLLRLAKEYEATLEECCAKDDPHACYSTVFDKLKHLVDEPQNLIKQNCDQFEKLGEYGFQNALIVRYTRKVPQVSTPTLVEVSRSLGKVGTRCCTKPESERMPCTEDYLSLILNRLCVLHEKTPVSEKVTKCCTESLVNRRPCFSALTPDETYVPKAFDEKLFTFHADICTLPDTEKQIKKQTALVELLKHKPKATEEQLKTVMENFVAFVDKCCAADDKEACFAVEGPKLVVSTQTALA
# UniProt P17301: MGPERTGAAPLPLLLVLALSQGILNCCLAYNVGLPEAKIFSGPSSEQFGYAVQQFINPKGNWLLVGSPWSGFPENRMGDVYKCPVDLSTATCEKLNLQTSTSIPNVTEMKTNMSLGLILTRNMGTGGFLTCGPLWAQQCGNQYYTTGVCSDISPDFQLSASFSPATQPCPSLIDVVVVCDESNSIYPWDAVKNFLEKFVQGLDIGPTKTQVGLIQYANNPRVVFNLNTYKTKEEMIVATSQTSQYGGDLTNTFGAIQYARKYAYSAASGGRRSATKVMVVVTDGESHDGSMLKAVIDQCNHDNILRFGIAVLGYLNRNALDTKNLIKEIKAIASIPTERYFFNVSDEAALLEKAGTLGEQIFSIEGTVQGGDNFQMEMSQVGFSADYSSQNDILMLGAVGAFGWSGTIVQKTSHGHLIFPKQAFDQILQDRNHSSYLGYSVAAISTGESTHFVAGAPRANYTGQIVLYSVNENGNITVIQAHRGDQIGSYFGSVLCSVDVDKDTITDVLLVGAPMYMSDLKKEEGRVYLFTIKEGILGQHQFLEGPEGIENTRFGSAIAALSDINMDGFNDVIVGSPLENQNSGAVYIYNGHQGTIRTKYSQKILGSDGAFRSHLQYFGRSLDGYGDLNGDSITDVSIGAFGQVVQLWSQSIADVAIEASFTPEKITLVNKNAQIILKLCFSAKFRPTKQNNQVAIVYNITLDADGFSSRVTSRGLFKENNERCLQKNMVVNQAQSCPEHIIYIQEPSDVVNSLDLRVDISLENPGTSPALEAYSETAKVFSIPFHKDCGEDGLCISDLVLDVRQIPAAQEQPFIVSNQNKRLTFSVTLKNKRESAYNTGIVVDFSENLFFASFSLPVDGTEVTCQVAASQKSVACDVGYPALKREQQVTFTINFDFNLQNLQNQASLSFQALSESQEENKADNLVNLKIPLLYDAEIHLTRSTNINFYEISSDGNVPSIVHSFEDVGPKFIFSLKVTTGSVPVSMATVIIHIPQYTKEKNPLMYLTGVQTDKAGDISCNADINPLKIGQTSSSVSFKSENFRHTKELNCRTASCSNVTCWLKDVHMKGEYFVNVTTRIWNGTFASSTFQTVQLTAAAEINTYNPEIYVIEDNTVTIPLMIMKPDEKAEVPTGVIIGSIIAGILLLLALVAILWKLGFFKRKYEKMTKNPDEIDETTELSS
# These are yes or no findings as the source states them, for the method shown.
# Biological target: BSA (bovine (from the name BSA)) (UniProt P02769)
# Test: cell adhesion and spreading on a coated surface; plates coated with EV1 (2.5 μg/cm2), type I collagen (5 μg/cm2) or 0.1% BSA, blocked with 0.1% BSA; cells in serum free DMEM plated on the wells; phase contrast images at 0-60 min; only the target purified
substance,measurement,value
α2β1 integrin with the loss-of-function mutation E336A in the α2 subunit (from UniProt P17301 30-1181; P05556 21-798) (receptor),binding,no binding
